# According to the supplement of paper PMC4604168 (melanoma cell lines):
# The other results are listed elsewhere or left out. Repeats are few or missing, and single values can be far off.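 Imaging used 1,536-well plates; nuclei positive for cleaved PARP by antibody were divided by total DNA-stained nuclei to yield the apoptosis fraction. Doses for screening kept most cells viable, and cell lines differ markedly in resting and induced cleaved-PARP levels.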
# Legend:
# Test in all cases: cleaved PARP positive nuclei fraction relative to DMSO control; melanoma cells; higher = more apoptosis
# Conditions in all cases: library dose: low library concentration; 72 h
# MZ2-MEL = test system: MZ2-MEL
# MeWo = test system: MeWo
# RPMI7951 = test system: RPMI7951
# RVH-421 = test system: RVH-421
# SkMel28 = test system: SkMel28
# SkMel2 = test system: SkMel2
# SkMel30 = test system: SkMel30
# SkMel5 = test system: SkMel5
# UACC257 = test system: UACC257
# UACC62 = test system: UACC62
# WM115 = test system: WM115
# WM1716 = test system: WM1716
# WM1745 = test system: WM1745
# WM3526 = test system: WM3526
# WM3619 = test system: WM3619
# WM451Lu = test system: WM451Lu
Structure (SMILES),cleaved PARP positive nuclei fraction (MZ2-MEL) [%],cleaved PARP positive nuclei fraction (MeWo) [%],cleaved PARP positive nuclei fraction (RPMI7951) [%],cleaved PARP positive nuclei fraction (RVH-421) [%],cleaved PARP positive nuclei fraction (SkMel28) [%],cleaved PARP positive nuclei fraction (SkMel2) [%],cleaved PARP positive nuclei fraction (SkMel30) [%],cleaved PARP positive nuclei fraction (SkMel5) [%],cleaved PARP positive nuclei fraction (UACC257) [%],cleaved PARP positive nuclei fraction (UACC62) [%],cleaved PARP positive nuclei fraction (WM115) [%],cleaved PARP positive nuclei fraction (WM1716) [%],cleaved PARP positive nuclei fraction (WM1745) [%],cleaved PARP positive nuclei fraction (WM3526) [%],cleaved PARP positive nuclei fraction (WM3619) [%],cleaved PARP positive nuclei fraction (WM451Lu) [%]
"O=C(O)[C@@H]1[O][Sb](=[O])([O][Sb]2(=[O])[O][C@H]([C@H](O)CO)[C@H](O)[C@H](C(=O)O)[O]2)[O][C@H]([C@H](O)CO)[C@@H]1O (stereo partly drawn) [stibogluconate] + O=C(Nc1ccccc1)c1cc([N+](=O)[O-])ccc1Cl [GW9662] (first compound 2 µM, partner dose 2 µM)",93.9,111,56.7,145,92.2,77.5,24.3,67.8,157,49.5,187,201,88.1,58.4,103,70.3
"Nc1nc(F)nc2c1ncn2[C@@H]1O[C@H](CO)[C@@H](O)[C@@H]1O [fludarabine] + COc1cc2ncnc(Nc3ccc(Oc4ccccc4)cc3)c2cc1OC [SrcI1] (first compound 0.2 µM, partner dose 2 µM)",73.6,681,56,72.9,128,1160,146,106,84.7,94,27.3,52.7,97.6,639,89.3,153
"O=C(O)c1ccc2c(c1)nc(Nc1cccc(Cl)c1)c1ccncc12 + Cc1cc(N2CCOCC2)cc2[nH]c(-c3c(NC[C@@H](O)c4cccc(Cl)c4)cc[nH]c3=O)nc12 [BMS536924] (first compound 0.4 µM, partner dose 0.2 µM)",163,76,83.6,194,125,137,97,43.1,138,62.4,45.2,158,220,62,115,53.3
"Cn1c(=O)n(-c2ccc(C(C)(C)C#N)cc2)c2c3cc(-c4cnc5ccccc5c4)ccc3ncc21 + O=C1NC(=O)/C(=C/c2ccc(-c3ccc(F)cc3O)o2)S1 [AS252424] (first compound 0.004 µM, partner dose 1 µM)",44.4,97.2,120,158,210,36.6,54.7,77.8,226,126,121,93,79.5,53,94.9,141
"CS(=O)(=O)CCNCc1ccc(-c2ccc3ncnc(Nc4ccc(OCc5cccc(F)c5)c(Cl)c4)c3c2)o1 [lapatinib] + CO[C@@H]1[C@H](N(C)C(=O)c2ccccc2)C[C@H]2O[C@]1(C)n1c3ccccc3c3c4c(c5c6ccccc6n2c5c31)C(=O)NC4 [Midostaurin] (first compound 0.8 µM, partner dose 0.08 µM)",91.8,317,57.3,58.9,138,128,300,84.9,108,221,324,253,188,56.5,94.9,31.1
"CS(=O)(=O)CCNCc1ccc(-c2ccc3ncnc(Nc4ccc(OCc5cccc(F)c5)c(Cl)c4)c3c2)o1 [lapatinib] + O=C(O)C(=O)Nc1sc2c(c1C(=O)O)CCNC2 [TCS401] (first compound 0.8 µM, partner dose 1.66667 µM)",75.2,111,196,116,55,86.6,39.9,74.8,139,118,95.2,92.2,99.3,152,86,74
"CCCS(=O)(=O)Nc1ccc(F)c(C(=O)c2c[nH]c3ncc(Cl)cc23)c1F + Oc1cc(-c2nc(-c3ccccc3)[nH]c2-c2ccncc2)ccc1Cl [L779450] (first compound 0.08 µM, partner dose 0.2 µM)",121,37.5,30.2,188,203,86.3,111,76.1,284,186,91.3,71.3,101,132,120,149
"Nc1nc(F)nc2c1ncn2[C@@H]1O[C@H](CO)[C@@H](O)[C@@H]1O [fludarabine] + OCCn1cc(-c2cnc3nnn(Cc4ccc5ncccc5c4)c3n2)cn1 [PF04217903] (first compound 0.2 µM, partner dose 1 µM)",90,762,75.3,94,76.3,1280,365,998,542,277,185,170,97.5,327,110,430
"Nc1ccn([C@@H]2O[C@H](CO)[C@@H](O)C2(F)F)c(=O)n1 [gemcitabine] + CC(C)CCN1c2nc(Nc3cc(F)c(O)c(F)c3)ncc2N(C)C(=O)C1C [BID1870] (first compound 0.0004 µM, partner dose 0.2 µM)",123,133,30.1,76,158,110,265,76.9,344,155,96.2,69.4,137,81.7,136,126
"C=C(c1ccc(C(=O)O)cc1)c1cc2c(cc1C)C(C)(C)CCC2(C)C [Bexarotene] + Oc1nc(-c2ccc(C(F)(F)F)cc2)nc2c1CSCC2 [XAV939] (first compound 2 µM, partner dose 2 µM)",103,45.3,211,151,118,109,38.7,161,111,63.9,95.4,117,105,77.8,93.2,70.7
"C[C@@H](Oc1cc(-c2cnn(C3CCNCC3)c2)cnc1N)c1c(Cl)ccc(F)c1Cl [Crizotinib] + COc1ccc2c(c1)CCC1C2CCC2(C)C(NCCCCCCN3C(=O)C=CC3=O)CCC12 [U73122] (first compound 0.2 µM, partner dose 0.4 µM)",88.9,135,144,120,134,73.2,17,298,38.7,343,72.9,196,182,109,103,48.1
"CNC(=O)c1cc(Oc2ccc(NC(=O)Nc3ccc(Cl)c(C(F)(F)F)c3)cc2)ccn1 [sorafenib] + COc1cc(N2CCC(N3CCN(C)CC3)CC2)ccc1Nc1ncc(Cl)c(Nc2ccccc2S(=O)(=O)C(C)C)n1 [NVP-TAE684] (first compound 0.4 µM, partner dose 0.08 µM)",27,146,24.8,85.6,115,119,80.4,245,33.7,107,63.4,66.1,98.3,75.7,105,40.1
"CNC(=O)c1cc(Oc2ccc(NC(=O)Nc3ccc(Cl)c(C(F)(F)F)c3)cc2)ccn1 [sorafenib] + OCCn1cc(-c2cnc3nnn(Cc4ccc5ncccc5c4)c3n2)cn1 [PF04217903] (first compound 0.4 µM, partner dose 1 µM)",146,22.5,140,113,37.1,37.7,54.4,66.1,32.8,98.2,49,92,111,178,80,155
"CN1CCN(c2ccc3nc(-c4c(N)c5c(F)cccc5[nH]c4=O)[nH]c3c2)CC1 [Dovitinib] + CC1(C)NC(=O)N(c2ccc([N+](=O)[O-])c(C(F)(F)F)c2)C1=O [nilutamide] (first compound 0.1 µM, partner dose 1 µM)",83.4,69.2,52.4,138,128,67.3,256,289,52.8,72.7,136,8.35,88.9,158,94.8,40.5
"CCCS(=O)(=O)Nc1ccc(F)c(C(=O)c2c[nH]c3ncc(Cl)cc23)c1F + OCCn1cc(-c2cnc3nnn(Cc4ccc5ncccc5c4)c3n2)cn1 [PF04217903] (first compound 0.08 µM, partner dose 1 µM)",72,94.9,124,60.1,43.5,126,69.6,117,57.7,184,89.1,22,95.8,97.6,91.5,105
"CN1CCN(c2ccc3nc(-c4c(N)c5c(F)cccc5[nH]c4=O)[nH]c3c2)CC1 [Dovitinib] + Cc1cc([N+](=O)[O-])ccc1NS(=O)(=O)c1cc(Cl)ccc1Cl [FH535] (first compound 0.1 µM, partner dose 1 µM)",26.5,36.5,115,157,137,26.5,115,84.8,73,132,133,149,101,233,73.5,140
"C=C(c1ccc(C(=O)O)cc1)c1cc2c(cc1C)C(C)(C)CCC2(C)C [Bexarotene] + O=C(CCCCCCC(=O)Nc1ccccc1)NO [vorinostat] (first compound 2 µM, partner dose 0.08 µM)",148,90.5,63.1,79.5,250,130,192,67.6,114,116,32.9,88.1,86.5,67.6,104,27.9
"C[C@@H](Oc1cc(-c2cnn(C3CCNCC3)c2)cnc1N)c1c(Cl)ccc(F)c1Cl [Crizotinib] + COC(=O)c1sccc1S(=O)(=O)Nc1ccc(Nc2ccccc2)cc1OC [GSK0660] (first compound 0.2 µM, partner dose 1 µM)",35.1,308,185,24,146,167,100,71.2,49.8,577,137,262,87.8,82,86.3,238

# Reprinted at random: two entries already listed.
Structure (SMILES),cleaved PARP positive nuclei fraction (MZ2-MEL) [%],cleaved PARP positive nuclei fraction (MeWo) [%],cleaved PARP positive nuclei fraction (RPMI7951) [%],cleaved PARP positive nuclei fraction (RVH-421) [%],cleaved PARP positive nuclei fraction (SkMel28) [%],cleaved PARP positive nuclei fraction (SkMel2) [%],cleaved PARP positive nuclei fraction (SkMel30) [%],cleaved PARP positive nuclei fraction (SkMel5) [%],cleaved PARP positive nuclei fraction (UACC257) [%],cleaved PARP positive nuclei fraction (UACC62) [%],cleaved PARP positive nuclei fraction (WM115) [%],cleaved PARP positive nuclei fraction (WM1716) [%],cleaved PARP positive nuclei fraction (WM1745) [%],cleaved PARP positive nuclei fraction (WM3526) [%],cleaved PARP positive nuclei fraction (WM3619) [%],cleaved PARP positive nuclei fraction (WM451Lu) [%]
"Nc1nc(F)nc2c1ncn2[C@@H]1O[C@H](CO)[C@@H](O)[C@@H]1O [fludarabine] + OCCn1cc(-c2cnc3nnn(Cc4ccc5ncccc5c4)c3n2)cn1 [PF04217903] (first compound 0.2 µM, partner dose 1 µM)",90,762,75.3,94,76.3,1280,365,998,542,277,185,170,97.5,327,110,430
"Nc1nc(F)nc2c1ncn2[C@@H]1O[C@H](CO)[C@@H](O)[C@@H]1O [fludarabine] + COc1cc2ncnc(Nc3ccc(Oc4ccccc4)cc3)c2cc1OC [SrcI1] (first compound 0.2 µM, partner dose 2 µM)",73.6,681,56,72.9,128,1160,146,106,84.7,94,27.3,52.7,97.6,639,89.3,153
